Values from PubChem BioAssay AID743454 (Peter MacCallum Cancer Centre, 2014)
This is an unselected part of about 18,000 reagents tested. 450 of them (2.5%) were called active. 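Single biological run; no consistent viability z cut-off exists, so the class columns, not z-scores, define the calls.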 A number with no mark means an inactive call.

Purpose: 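Genes whose loss kills vorinostat-resistant colon cancer cells under vorinostat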 (primary screen)
Cells: human HCT116-VR colon cancer cells, selected for vorinostat resistance
Reagent: siRNA pool against human genes, 40 nM siRNA pool
Time to read-out: vorinostat for 24 h, read-out about 72 h after transfection
Challenge: vorinostat at 2.5 µM final
Measured: 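Cell viability by CellTiter-Fluor and caspase 3/7 activity by luminescence, each scaled to mock wells per plate, duplicates averaged, then robust z-scored over all plates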
Reading the numbers: viability robust z-score: higher = more viable cells than screen typical; caspase robust z-score: higher = more caspase 3/7 activity than screen typical
Hit rule: 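a knock-down is a hit when classed RV1 or RV2 for lowered viability, or CA1 or CA2 for caspase activation; those lethal without drug were dropped; hits were retested singly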

Target gene	viability hit class	caspase hit class	viability robust z-score	caspase robust z-score
SHISAL2A (shisa like 2A)	no change	no change	-0.22	-0.62
YTHDF2 (YTH N6-methyladenosine RNA binding protein F2)	no change	no change	-2.12	0.27
FLG (filaggrin)	no change	no change	-1.33	0.36
FAM20A (FAM20A golgi associated secretory pathway pseudokinase)	no change	no change	-0.28	0.94
DCPS (decapping enzyme, scavenger)	no change	no change	0.69	-0.49
TRIML2 (tripartite motif family like 2)	no change	no change	-1.46	1.25
APCS (amyloid P component, serum)	no change	no change	1	-0.76
PMCH (pro-melanin concentrating hormone)	no change	no change	0.28	-0.5
SESTD1 (SEC14 and spectrin domain containing 1)	no change	no change	0.55	-0.02
PGBD4 (piggyBac transposable element derived 4)	no change	no change	0.27	-0.52
ZNF816 (zinc finger protein 816)	no change	no change	1.94	-0.34
SEC62 (SEC62 preprotein translocation factor)	no change	no change	-0.5	1.19
CISH (cytokine inducible SH2 containing protein)	no change	no change	-0.57	1.83
RGS9 (regulator of G protein signaling 9)	no change	no change	1.48	0.79
SRSF6 (serine and arginine rich splicing factor 6)	no change	no change	-1.75	-0.97
TMEM192 (transmembrane protein 192)	no change	no change	0.37	-0.42
AKT3 (AKT serine/threonine kinase 3)	no change	no change	0.56	-0.68
LCN12 (lipocalin 12)	no change	no change	0.8	0.8
RSBN1L (round spermatid basic protein 1 like)	no change	no change	-0.12	-0.76
VPS37A (VPS37A subunit of ESCRT-I)	no change	no change	0.62	-0.24
AP3S1 (adaptor related protein complex 3 subunit sigma 1)	no change	no change	-1.31	-1.04
PITX3 (paired like homeodomain 3)	no change	no change	-0.76	3.45
PRPF39 (pre-mRNA processing factor 39)	no change	no change	-1.3	0.47

4 entries already listed, arranged by “caspase robust z-score”, highest first.
Target gene	viability hit class	caspase hit class	viability robust z-score	caspase robust z-score
RGS9 (regulator of G protein signaling 9)	no change	no change	1.48	0.79
TMEM192 (transmembrane protein 192)	no change	no change	0.37	-0.42
AKT3 (AKT serine/threonine kinase 3)	no change	no change	0.56	-0.68
SRSF6 (serine and arginine rich splicing factor 6)	no change	no change	-1.75	-0.97

Further reagents follow.
Target gene	viability hit class	caspase hit class	viability robust z-score	caspase robust z-score
TMEM62 (transmembrane protein 62)	no change	no change	-0.2	-0.9
THOC5 (THO complex subunit 5)	no change (active)	CA1 (caspase activation)	-0.58	5.34
OR2B6 (olfactory receptor family 2 subfamily B member 6)	no change	no change	0.14	-0.03
DPF3 (double PHD fingers 3)	no change	no change	-1.55	1.04
PRNT (prion locus lncRNA, testis expressed)	no change	no change	-1.1	-1.17
HERC2 (HECT and RLD domain containing E3 ubiquitin protein ligase 2)	no change	no change	0.59	-0.16
CEP120 (centrosomal protein 120)	no change	no change	-0.08	1.23
CCDC12 (coiled-coil domain containing 12)	no change	no change	-2.01	3.21
DEFB123 (defensin beta 123)	no change	no change	0.84	-0.29
STAR (steroidogenic acute regulatory protein)	no change	no change	-1.88	2.16
ODF4 (outer dense fiber of sperm tails 4)	no change	no change	-0.24	-0.64
GANC (glucosidase alpha, neutral C)	no change	no change	-0.01	3.69
PTRH1 (peptidyl-tRNA hydrolase 1 homolog)	no change	no change	-0.54	-0.12
PCDH1 (protocadherin 1)	no change	no change	0.19	-0.4
TCEAL1 (transcription elongation factor A like 1)	no change	no change	-2	2.35
ZNF112 (zinc finger protein 112)	no change	no change	-0.64	0.46
